Measured values: patent US20200024341A1
Results are given in words; binding and its absence hold for the method and conditions named. Binding seen in cells or lysates may run through a third protein. Some results given as binding are weak or reduced against the parent protein; the word gives no strength.

Sequences of proteins named here, by UniProt entry; tags and fusion partners are left off. A change or cut given only in a name is not applied to a line headed by its entry.
UniProt P07478: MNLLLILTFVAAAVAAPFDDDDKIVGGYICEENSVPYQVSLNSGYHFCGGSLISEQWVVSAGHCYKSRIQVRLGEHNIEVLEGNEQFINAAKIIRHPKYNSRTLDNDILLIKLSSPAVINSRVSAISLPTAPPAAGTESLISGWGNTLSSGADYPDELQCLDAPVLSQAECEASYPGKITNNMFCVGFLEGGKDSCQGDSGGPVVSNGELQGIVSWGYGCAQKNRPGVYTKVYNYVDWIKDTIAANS

T1: prosaposin (UniProt P07602)
T1 sequence (looked up): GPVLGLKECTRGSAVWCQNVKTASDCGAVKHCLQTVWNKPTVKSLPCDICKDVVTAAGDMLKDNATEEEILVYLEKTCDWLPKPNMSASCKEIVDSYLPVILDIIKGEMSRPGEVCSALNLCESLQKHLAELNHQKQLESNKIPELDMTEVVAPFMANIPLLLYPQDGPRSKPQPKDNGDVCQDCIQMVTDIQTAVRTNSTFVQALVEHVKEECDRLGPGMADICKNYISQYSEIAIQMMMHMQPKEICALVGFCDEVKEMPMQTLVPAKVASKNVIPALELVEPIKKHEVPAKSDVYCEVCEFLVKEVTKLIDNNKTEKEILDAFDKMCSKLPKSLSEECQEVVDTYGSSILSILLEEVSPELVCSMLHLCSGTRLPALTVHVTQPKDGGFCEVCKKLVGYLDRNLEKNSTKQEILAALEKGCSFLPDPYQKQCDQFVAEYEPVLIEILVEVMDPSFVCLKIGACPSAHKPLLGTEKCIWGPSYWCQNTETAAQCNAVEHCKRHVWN


Key:
[1] = biological target: Protease, serine 2 (PRSS2) (Homo sapiens (Human)) (UniProt P07478); assay: co-immunoprecipitation
prosaposin = biological target: T1, prosaposin; assay: co-immunoprecipitation

| binding [1] | binding (prosaposin) | Binder |
| --- | --- | --- |
| binds | binds | YGTCSQLCTNTDGSFICGCVEGYLL [Peptide 12 (amino acids 140-164 of LRP1)] |
| binds | binds | FICGCVEGYLLQPDNRSCKAKN [Peptide 13 (amino acids 151-172 of LRP1)] |
